The nature of the series: Odour description (olfactory evaluation of the compound).
As for `CC1OC[C@H](C)[C@]2(C[C@H]3CC[C@]2(C)C3(C)C)O1` (mixture of isomers) [Compound 1a, (1R,2S,2′R/S,4R,5′S)-1,2′,5′,7,7-Pentamethylspiro[bicyclo[2.2.1]heptane-2,4′-[1,3]dioxane]], the Odour description entry was “woody, ambery, fruity, rich, sweet”.

For the compound `CC1OCC(C)C2(CC3CCC2(C)C3(C)C)O1` (racemic) [Compound 1e, (1RS,2SR,2′RS/SR,4RS,5′RS/SR)-1,2′,5′,7,7-Pentamethylspiro[bicyclo[2.2.1]heptane-2,4′-[1,3]dioxane]], the Odour description result is reported as “ambery, woody, earthy/mossy, fruity”.

For `CC1OCC(C)C2(CC3CCC2(C)C3(C)C)O1` (racemic) [Compound 1f, (1RS,2SR,2′RS/SR,4RS,5′RS/SR)-1,2′,5′,7,7-Pentamethylspiro[bicyclo[2.2.1]heptane-2,4′-[1,3]dioxane]], the Odour description entry is given as “woody, fruity, ambery”.

As for `CCC1OCC(C)C2(CC3CCC2(C)C3(C)C)O1` (racemic) [Compound 1l, (1RS,2SR,2′RS/SR,4RS,5′RS/SR)-2′-Ethyl-1,5′,7,7-tetramethylspiro[bicyclo[2.2.1]-heptane-2,4′-[1,3]dioxane]], the Odour description result is reported as “woody, ambery, fruity, carrot, sweet”.

Regarding `CC(C)C1OCC(C)C2(CC3CCC2(C)C3(C)C)O1` (racemic) [Compound 1m, (1RS,2SR,2′RS/SR,4RS,5′SR)-2′-isopropyl-1,5′,7,7-tetramethylspiro[bicyclo[2.2.1]-heptane-2,4′-[1,3]dioxane]], the Odour description result is “ambery, woody, fruity, rich”.

As to `CC(C)C1OCC(C)C2(CC3CCC2(C)C3(C)C)O1` (racemic) [Compound 1n, (1RS,2SR,2′RS/SR,4RS,5′RS/SR)-2′-isopropyl-1,5′,7,7-tetramethylspiro [bicyclo[2.2.1]heptane-2,4′-[1,3]dioxane]], the Odour description result is on record as “fruity, woody, green”.

Consider `CC1COC(C)(C)OC12CC1CCC2(C)C1(C)C` (racemic) [Compound 1q, (1RS,2SR,4RS,5′RS/SR)-1,2′,2′,5′,7,7-Hexamethylspiro[bicyclo[2.2. 1]heptane-2,4′-[1,3]dioxane]], for which the Odour description result was “earthy/mossy, woody, vetiver aspect”.

As for `CC1OC(C)C(C)C2(CC3CCC2(C)C3(C)C)O1` (racemic) [Compound 1r, (1RS,2SR,2′RS/SR,4RS,5′RS/SR,6′RS/SR)-1,2′,5′,6′,7,7-Hexamethylspiro[bicyclo[2.2.1]heptane-2,4′-[1,3]dioxane]], the Odour description entry was “Woody, fruity, ambery, sweet, cedarwood”.

With `CC1OC(C)(C)OC2(CC3CCC2(C)C3(C)C)C1C` (racemic) [Compound 1s, (1RS,2SR,4RS,5′RS/SR,6′RS/SR)-1,2′,2′,5′,6′,7,7-Heptamethylspiro[bicyclo[2.2.1]heptane-2,4′-[1,3]dioxane]], the Odour description result was “Woody, earthy/mossy, cedarwood”.

As to `CCC1OC(C)OC2(CC3CCC2(C)C3(C)C)C1C` (racemic) [Compound 1t, (1RS,2SR,2′RS/SR,4RS,5′RS/SR,6′RS/SR)-6′-Ethyl-1,2′,5′,7,7-pentamethylspiro[bicyclo[2.2.1]heptane-2,4′-[1,3]dioxane]], the Odour description entry is given as “woody, fruity, green, pine, eucalyptus, cedarwood”.

As to `CCC1OC(C)(C)O[C@@]2(C[C@H]3CC[C@]2(C)C3(C)C)C1C` (mixture of isomers) [Compound 1u, (1RS,2SR,4RS,5′RS/SR,6′RS/SR)-6′-Ethyl-1,2′,2′,5′,7,7-hexamethylspiro[bicyclo[2.2.1]heptane-2,4′-[1,3]dioxane]], the Odour description entry is listed as “floral, sweet, woody, cedarwood aspect”.

For the compound `CCC1COC(C)O[C@@]12C[C@H]1CC[C@]2(C)C1(C)C` (mixture of isomers) [Compound 1v, (1RS,2SR,2′RS/SR,4RS,5′RS/SR)-5′-Ethyl-1,2′,7,7-tetramethylspiro[bicyclo[2.2.1]heptane-2,4′-[1,3]dioxane]], the Odour description entry is given as “woody, ambery, fruity, slightly carrot-like”.

Take `C[C@H]1OC[C@H](C)[C@]2(C[C@H]3CC[C@]2(C)C3(C)C)O1` (single isomer, unassigned) [Compound 1b]: the Odour description result is “ambery, woody, dry, sweet, animalic”.

`C[C@@H]1OC[C@H](C)[C@]2(C[C@H]3CC[C@]2(C)C3(C)C)O1` (single isomer, unassigned) [Compound 1c]: the Odour description entry is “dry, woody, cedarwood, ambery, warm, powdery”.

For `C[C@H]1OC[C@@H](C)[C@]2(C[C@H]3CC[C@]2(C)C3(C)C)O1` [Compound 1d, (1R,2S,2′S,4R,5′R)-1,2′,5′,7,7-Pentamethylspiro[bicyclo[2.2.1]heptane-2,4′-[1,3]dioxane]], the Odour description result was “ambery, woody, balsamic, green”.

As for `CC[C@H]1OC[C@H](C)[C@]2(C[C@H]3CC[C@]2(C)C3(C)C)O1` [Compound 1g, (1R,2S,2′S,4R,5′S)-2′-Ethyl-1,5′,7,7-tetramethylspiro[bicyclo[2.2.1]heptane-2,4′-[1,3]dioxane]], the Odour description result was “woody, ambery, green, sweet, floral”.

Take `CC[C@@H]1OC[C@H](C)[C@]2(C[C@H]3CC[C@]2(C)C3(C)C)O1` [Compound 1h, (1R,2S,2′R,4R,5′S)-2′-Ethyl-1,5′,7,7-tetramethylspiro[bicyclo[2.2.1]heptane-2,4′-[1,3]dioxane]]: the Odour description entry is given as “woody, green”.

On to `CC(C)[C@H]1OC[C@H](C)[C@]2(C[C@H]3CC[C@]2(C)C3(C)C)O1` [Compound 1i, (1R,2S,2′S,4R,5′S)-2′-Isopropyl-1,5′,7,7-tetramethylspiro[bicyclo[2.2.1]heptane-2,4′-[1,3]dioxane]], for which the Odour description entry is listed as “woody, ambery, sweet, dry, cedarwood, creamy”.

Consider `CC(C)[C@@H]1OC[C@H](C)[C@]2(C[C@H]3CC[C@]2(C)C3(C)C)O1` [Compound 1j, (1R,2S,2′R,4R,5′S)-2′-Isopropyl-1,5′,7,7-tetramethylspiro[bicyclo[2.2.1]heptane-2,4′-[1,3]dioxane]], for which the Odour description entry is “ambery, woody, green, floral”.

For the compound `CC(C)[C@H]1OC[C@@H](C)[C@]2(C[C@H]3CC[C@]2(C)C3(C)C)O1` [Compound 1k, (1R,2S,2′S,4R,5′R)-2′-isopropyl-1,5′,7,7-tetramethylspiro[bicyclo[2.2.1]heptane-2,4′-[1,3]dioxane]], the Odour description entry was “fruity, animalic, woody, touch ambrette seeds”.

On to `C[C@H]1COC(C)(C)O[C@@]12C[C@H]1CC[C@]2(C)C1(C)C` [Compound 1o, (1R,2S,4R,5′S)-1,2′,2′,5′,7,7-hexamethylspiro[bicyclo[2.2.1]heptane-2,4′-[1,3]dioxane]], for which the Odour description result is “woody, ambery, camphoraceous, earthy/mossy”.

On to `C[C@@H]1COC(C)(C)O[C@@]12C[C@H]1CC[C@]2(C)C1(C)C` [Compound 1p, (1R,2S,4R,5′R)-1,2′,2′,5′,7,7-hexamethylspiro[bicyclo[2.2.1]heptane-2,4′-[1,3]dioxane]], for which the Odour description result was “woody, agrestic, ambery, earthy/mossy, dry, cedarwood aspect”.

For the origin of these results see patent publication US20080161223A1, “Spirobornyl-2,4-(1,3-Dioxanes)] And Their Uses As Fragrance Ingredients” (GIVAUDAN SA, priority 2005, published 2008).
